The values that follow come from publication PMC6858710.

The chains behind the UniProt entries cited, without tags or fusion partners. Where a name states a change or a piece, a line headed by the entry shows the natural chain unless it says otherwise.
UniProt P11309: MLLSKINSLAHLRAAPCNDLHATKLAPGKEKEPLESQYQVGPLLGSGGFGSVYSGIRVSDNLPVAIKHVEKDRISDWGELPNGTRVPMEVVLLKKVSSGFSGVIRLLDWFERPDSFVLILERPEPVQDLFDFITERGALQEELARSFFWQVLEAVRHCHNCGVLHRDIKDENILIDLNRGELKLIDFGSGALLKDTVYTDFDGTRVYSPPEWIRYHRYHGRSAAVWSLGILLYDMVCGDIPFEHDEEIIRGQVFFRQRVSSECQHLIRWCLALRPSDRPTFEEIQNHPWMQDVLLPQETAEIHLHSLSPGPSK
UniProt O95644: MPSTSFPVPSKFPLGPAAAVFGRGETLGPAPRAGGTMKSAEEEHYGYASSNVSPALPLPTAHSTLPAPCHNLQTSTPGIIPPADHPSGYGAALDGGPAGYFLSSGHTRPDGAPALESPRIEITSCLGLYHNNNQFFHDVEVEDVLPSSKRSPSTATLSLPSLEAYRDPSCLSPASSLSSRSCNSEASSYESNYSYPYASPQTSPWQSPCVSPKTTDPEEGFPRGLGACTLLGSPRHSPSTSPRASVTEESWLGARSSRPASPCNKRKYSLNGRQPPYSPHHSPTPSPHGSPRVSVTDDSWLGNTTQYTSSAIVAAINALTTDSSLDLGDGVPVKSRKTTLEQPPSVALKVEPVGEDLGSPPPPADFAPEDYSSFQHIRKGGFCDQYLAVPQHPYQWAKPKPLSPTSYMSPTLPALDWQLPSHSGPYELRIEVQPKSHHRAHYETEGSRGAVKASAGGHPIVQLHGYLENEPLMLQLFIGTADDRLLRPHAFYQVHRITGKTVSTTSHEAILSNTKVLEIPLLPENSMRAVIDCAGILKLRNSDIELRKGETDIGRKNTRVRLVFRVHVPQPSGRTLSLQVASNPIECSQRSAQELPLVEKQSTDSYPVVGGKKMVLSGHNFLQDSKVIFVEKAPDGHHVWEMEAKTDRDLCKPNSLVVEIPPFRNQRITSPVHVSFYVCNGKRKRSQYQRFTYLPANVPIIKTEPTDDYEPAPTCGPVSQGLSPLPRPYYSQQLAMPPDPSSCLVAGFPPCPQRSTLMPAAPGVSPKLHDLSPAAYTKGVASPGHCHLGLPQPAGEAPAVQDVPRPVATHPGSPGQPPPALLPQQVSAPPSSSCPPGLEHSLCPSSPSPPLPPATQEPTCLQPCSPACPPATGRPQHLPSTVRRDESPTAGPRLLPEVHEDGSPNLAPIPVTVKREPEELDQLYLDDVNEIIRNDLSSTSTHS

These are yes or no findings as the source states them, for the method shown. In cells and extracts the contact can be indirect. Binding can be weak; no strength is given.

In this test the target is RFP-tagged PIM1 (human) (UniProt P11309). Description: FRET or BRET; FLIM: GFP lifetime measured in fixed (4% PFA) PC-3 cells transiently co-transfected with GFP-NFATC1 and RFP-PIM1; cells treated overnight with DMSO or 10 uM DHPCC-9; the lowest negative control (GFP + RFP) value was set as the limit for physical interaction.

On to “GFP-tagged multi mutant (MM) NFATC1 (from UniProt O95644)”, for which the binding entry is reported as “binds”.
Consider “GFP-tagged wild-type NFATC1 (from UniProt O95644-2)”, for which the binding entry is listed as “binds”.
